These are yes or no findings as the source states them, for the method shown. Some results given as binding are weak or reduced against the parent protein; the word gives no strength. Tags and fused reporters may be left off the sequences shown.
Experiments:
[1] = target: WT IL-38 (residues 3-152, initiator methionine, C-terminal His6 tag) (human) (UniProt Q8WWZ1); assay: analytical SEC after extended incubation
[2] = target: WT IL-38 (residues 3-152, initiator methionine, C-terminal His6 tag) (human) (UniProt Q8WWZ1); assay: analytical SEC after 16 h at 37 C, 0.165 mg/ml

B1: WT IL-38 (residues 3-152, initiator methionine, C-terminal His6 tag) (ligand, not shown: small tags and cut ends)
chain: MSLPMARYYIIKYADQKALYTRDGQLLVGDPVADNCCAEKICILPNRGLARTKVPIFLGIQGGSRCLACVETEEGPSLQLEDVNIEELYKGGEEATRFTFFQSSSGSAFRLEAAAWPGWFLCGPAEPQQPVQLTKESEPSARTKFYFEQSW
binding [1]: binds
binding [2]: binds
